From article PMC4368784 come the findings set out here.

The chains behind the UniProt entries cited, without tags or fusion partners. Where a name states a change or a piece, a line headed by the entry shows the natural chain unless it says otherwise.
UniProt Q7S9R0: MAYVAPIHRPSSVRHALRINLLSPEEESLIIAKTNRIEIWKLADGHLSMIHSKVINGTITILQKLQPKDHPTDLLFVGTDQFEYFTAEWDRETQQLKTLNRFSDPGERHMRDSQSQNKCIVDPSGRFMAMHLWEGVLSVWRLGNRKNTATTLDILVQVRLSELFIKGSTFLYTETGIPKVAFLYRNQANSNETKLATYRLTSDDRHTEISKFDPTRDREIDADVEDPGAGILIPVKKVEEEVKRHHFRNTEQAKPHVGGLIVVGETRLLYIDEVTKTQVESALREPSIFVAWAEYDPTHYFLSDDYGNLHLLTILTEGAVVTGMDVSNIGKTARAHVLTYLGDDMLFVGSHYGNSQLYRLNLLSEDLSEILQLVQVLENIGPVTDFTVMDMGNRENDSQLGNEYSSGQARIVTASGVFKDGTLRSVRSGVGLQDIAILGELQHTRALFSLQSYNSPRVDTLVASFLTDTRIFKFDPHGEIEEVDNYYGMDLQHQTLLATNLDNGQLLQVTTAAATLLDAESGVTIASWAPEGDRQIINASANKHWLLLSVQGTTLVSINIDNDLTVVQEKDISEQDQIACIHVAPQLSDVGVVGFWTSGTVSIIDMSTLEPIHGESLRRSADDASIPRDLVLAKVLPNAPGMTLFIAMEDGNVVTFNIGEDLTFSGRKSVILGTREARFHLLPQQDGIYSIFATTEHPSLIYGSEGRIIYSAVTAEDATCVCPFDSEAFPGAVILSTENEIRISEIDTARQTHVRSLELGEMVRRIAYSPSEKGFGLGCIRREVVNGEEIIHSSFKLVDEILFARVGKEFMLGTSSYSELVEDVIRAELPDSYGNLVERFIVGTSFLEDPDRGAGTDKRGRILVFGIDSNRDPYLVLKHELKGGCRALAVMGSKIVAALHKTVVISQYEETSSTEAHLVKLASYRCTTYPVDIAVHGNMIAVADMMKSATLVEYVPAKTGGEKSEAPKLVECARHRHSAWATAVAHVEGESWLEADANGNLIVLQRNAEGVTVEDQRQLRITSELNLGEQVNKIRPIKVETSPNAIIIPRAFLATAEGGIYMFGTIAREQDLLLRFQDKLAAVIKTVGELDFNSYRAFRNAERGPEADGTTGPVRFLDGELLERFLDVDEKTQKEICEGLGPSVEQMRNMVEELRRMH

These are yes or no findings as the source states them, for the method shown. Binding seen in cells or lysates may run through a third protein. Binding calls can cover weak binding; strength is not graded here.

In the assay the target is DDB1-3xFLAG (N. crassa) (UniProt Q7S9R0). Put plainly: co-IP; anti-FLAG immunoprecipitation of 3xFLAG-tagged DCDC members from nuclei of dim-3+ (WT) and dim-3 N. crassa strains; partner detected by western blot and normalised to bait level. (In general: Immunoblotting shows a protein as a band on a membrane.)

B1: DIM-9-3xHA (protein, UniProt Q7RVP2 1-943)
chain: MNSRPGDPARDPLTNGSSIAPGNTQSHGFLVEAQQRHQPDNLEHPPFKRQRTETVPATAPTINNQIQQNGNSQTVPHWGRQDVFIQCLANQVFPHVDRELANLPRDKYDVQKIGTKVVEIVTGADFTAAYKLGNGRVSDAFERLLAARIPVETRALLMLPEYRFKSYTPVPVPKVPPVLAPPQAPSGYASAPLPPPPPRPGSAIAPTFPAADERRYSNSPIPLPAVPGRQEAYRGVNPPSGLRYPHAPVPSHATTGIHRPTILPPPPSTQVITIKDDDEEKQGKGTPSAAITVPQPNSTVRPPMVLDPPSASVTQPSVSNLPVDLPENFVSEPRRRGRVSRWRKRVEEEQRPQNRGIVTTSAQNYRSRAHALVWRGHEDSVDSRGLSSRLFSEAKRPYLSAEQRANISAGVQGFVRFDDSVVPRPTIFHVDFTADEIKALRNLCRRVLGLSSGSRKQDLAKDLRKQLKKHRGDIVKVLDAIRSESELSHRNRTDVERFLHDLVNHKVAGNPSILALKRDKYDLHGELARSSQINSLLFARETSGNRGMALRAPLNFPNEFVKCREDELELRREWTDCAGDIATIAWVSNDGFICGTTEHSDAHNQQYNKPGNLVLGSCSQGTLRAYPDHRIVRPVVEKGENSTDAMRQSQDPWLYSSVVSSDYDDVHGRAFTSGFDRKVKVWKVDPSGSSMVLLGEWSHGGNVNFVAASNPIQTLDCWALDINELTVMPISFGSCYITAGCTDGITYVWDTAQGDKPIHTLRHGEPIEEFRGDREHEDVGVKFTAWGRTLDRFYTGSSDGVVKVWNLPDRTLGVVQGPNYVETGLYRREAHLDEDPRLPLKASFNGLQQETRRQFSEGVRRYLSPLRSITKESFLKAKEAHFTNLPLDFSVDLLEEETKQALEAEGVDWQLNEGTLDLVYEDDENDNEDLVSSGANGSDIDEF
Regarding B1, the binding result was “binds”.
